The list shows a part of the results.
How the values were obtained:
Assay in all cases: log2 fold change, soluble protein after heating vs DMSO (PISA); higher = thermal stabilisation; K562 cells, 10 uM, 30 min; active = over 0.2 and 3.5 SD of the protein, either way, in both replicates (recomputed)
[1] = compound: CC[C@@H]1C(=O)N(C)c2cnc(Nc3ccc(C(=O)NC4CCN(C)CC4)cc3OC)nc2N1C1CCCC1
Summary of the method: (§1)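 For each measurement, 10 μM compound was applied for 30 min to K562 cells at 2×10^6 cells/mL. Aliquots were heated for 3 min across 48°C-58°C, pooled, and extracted in PBS with 0.5% NP-40 at 4°C; the supernatant after 21,000xg for 90 min was soluble protein. This was quantified by TMTpro 16plex LC-MS/MS with channel sums equalised, and thermal stability was reported relative to control samples from duplicates, on a log2 fold-change scale.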

The chains behind the UniProt entries cited, without tags or fusion partners. Where a name states a change or a piece, a line headed by the entry shows the natural chain unless it says otherwise.
UniProt Q92888: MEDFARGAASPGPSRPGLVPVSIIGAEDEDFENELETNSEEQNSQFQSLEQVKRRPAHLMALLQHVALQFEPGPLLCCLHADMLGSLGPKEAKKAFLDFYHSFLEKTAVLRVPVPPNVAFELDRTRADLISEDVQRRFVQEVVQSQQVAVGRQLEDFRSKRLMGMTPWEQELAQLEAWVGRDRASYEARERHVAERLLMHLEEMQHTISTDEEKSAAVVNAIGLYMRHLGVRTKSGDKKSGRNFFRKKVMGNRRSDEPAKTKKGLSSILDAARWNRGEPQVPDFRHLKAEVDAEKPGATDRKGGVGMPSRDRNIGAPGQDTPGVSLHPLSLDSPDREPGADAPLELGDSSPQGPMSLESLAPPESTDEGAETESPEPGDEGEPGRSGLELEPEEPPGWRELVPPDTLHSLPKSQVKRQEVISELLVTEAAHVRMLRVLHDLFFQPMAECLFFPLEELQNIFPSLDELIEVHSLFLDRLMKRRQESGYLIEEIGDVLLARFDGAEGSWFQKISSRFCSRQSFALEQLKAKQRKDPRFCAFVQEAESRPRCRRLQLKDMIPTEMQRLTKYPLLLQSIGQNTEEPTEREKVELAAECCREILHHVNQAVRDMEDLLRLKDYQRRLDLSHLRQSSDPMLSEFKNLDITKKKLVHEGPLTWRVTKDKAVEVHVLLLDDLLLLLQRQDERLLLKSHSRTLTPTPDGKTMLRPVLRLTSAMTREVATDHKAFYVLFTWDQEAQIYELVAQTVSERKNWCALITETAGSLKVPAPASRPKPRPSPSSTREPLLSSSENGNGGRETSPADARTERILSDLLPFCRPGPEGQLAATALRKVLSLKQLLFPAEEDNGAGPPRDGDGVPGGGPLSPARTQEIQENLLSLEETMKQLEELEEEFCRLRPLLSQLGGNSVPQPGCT
UniProt O15084: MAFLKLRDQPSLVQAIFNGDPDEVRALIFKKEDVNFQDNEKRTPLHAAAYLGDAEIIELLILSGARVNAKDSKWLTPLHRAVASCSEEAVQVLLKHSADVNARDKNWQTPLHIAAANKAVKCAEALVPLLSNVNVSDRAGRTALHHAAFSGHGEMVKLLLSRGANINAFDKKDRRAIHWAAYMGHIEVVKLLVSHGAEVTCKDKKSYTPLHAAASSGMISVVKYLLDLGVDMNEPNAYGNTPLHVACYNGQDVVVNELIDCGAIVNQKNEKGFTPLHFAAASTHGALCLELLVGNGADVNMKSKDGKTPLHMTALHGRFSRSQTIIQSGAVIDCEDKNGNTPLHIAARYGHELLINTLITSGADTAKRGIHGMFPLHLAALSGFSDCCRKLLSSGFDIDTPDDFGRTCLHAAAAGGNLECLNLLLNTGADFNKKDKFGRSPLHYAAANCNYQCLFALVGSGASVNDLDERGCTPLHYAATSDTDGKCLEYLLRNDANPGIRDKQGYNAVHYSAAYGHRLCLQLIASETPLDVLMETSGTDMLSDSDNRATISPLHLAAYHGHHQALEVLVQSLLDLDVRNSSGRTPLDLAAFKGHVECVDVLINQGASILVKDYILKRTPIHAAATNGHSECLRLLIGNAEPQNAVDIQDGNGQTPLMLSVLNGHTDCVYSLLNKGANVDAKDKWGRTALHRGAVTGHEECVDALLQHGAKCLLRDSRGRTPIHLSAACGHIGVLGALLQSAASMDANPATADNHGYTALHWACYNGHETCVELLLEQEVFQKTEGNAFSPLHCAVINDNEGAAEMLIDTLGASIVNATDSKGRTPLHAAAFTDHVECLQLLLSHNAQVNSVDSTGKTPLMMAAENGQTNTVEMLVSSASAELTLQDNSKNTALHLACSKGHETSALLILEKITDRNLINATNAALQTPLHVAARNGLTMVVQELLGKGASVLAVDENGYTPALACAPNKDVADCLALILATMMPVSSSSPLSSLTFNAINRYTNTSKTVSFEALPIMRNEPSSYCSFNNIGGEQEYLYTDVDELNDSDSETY
UniProt Q10567: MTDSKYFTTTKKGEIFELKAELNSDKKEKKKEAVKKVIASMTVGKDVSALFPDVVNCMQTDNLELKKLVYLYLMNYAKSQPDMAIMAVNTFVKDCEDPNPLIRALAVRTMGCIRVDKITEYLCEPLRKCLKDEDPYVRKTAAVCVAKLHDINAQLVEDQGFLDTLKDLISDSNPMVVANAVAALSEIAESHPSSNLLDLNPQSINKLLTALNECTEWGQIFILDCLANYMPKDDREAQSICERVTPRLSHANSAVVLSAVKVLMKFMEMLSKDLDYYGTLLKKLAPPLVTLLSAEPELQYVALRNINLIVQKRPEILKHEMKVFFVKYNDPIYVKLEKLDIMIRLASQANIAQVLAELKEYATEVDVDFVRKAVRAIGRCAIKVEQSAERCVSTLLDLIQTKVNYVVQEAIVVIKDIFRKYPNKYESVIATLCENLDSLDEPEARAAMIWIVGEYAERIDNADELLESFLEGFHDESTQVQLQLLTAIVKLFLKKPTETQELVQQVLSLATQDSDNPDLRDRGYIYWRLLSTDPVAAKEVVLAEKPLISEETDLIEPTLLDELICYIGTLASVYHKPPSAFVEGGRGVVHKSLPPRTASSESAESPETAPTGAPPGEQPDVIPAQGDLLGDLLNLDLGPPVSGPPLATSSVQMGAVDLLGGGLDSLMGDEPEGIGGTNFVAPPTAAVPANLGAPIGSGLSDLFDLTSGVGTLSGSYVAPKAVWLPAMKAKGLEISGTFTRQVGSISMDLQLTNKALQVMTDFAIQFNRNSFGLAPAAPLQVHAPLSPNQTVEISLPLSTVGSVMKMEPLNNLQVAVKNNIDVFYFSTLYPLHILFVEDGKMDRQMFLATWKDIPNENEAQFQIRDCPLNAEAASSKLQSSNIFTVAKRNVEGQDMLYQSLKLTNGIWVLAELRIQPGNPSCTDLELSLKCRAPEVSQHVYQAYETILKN
UniProt O75179: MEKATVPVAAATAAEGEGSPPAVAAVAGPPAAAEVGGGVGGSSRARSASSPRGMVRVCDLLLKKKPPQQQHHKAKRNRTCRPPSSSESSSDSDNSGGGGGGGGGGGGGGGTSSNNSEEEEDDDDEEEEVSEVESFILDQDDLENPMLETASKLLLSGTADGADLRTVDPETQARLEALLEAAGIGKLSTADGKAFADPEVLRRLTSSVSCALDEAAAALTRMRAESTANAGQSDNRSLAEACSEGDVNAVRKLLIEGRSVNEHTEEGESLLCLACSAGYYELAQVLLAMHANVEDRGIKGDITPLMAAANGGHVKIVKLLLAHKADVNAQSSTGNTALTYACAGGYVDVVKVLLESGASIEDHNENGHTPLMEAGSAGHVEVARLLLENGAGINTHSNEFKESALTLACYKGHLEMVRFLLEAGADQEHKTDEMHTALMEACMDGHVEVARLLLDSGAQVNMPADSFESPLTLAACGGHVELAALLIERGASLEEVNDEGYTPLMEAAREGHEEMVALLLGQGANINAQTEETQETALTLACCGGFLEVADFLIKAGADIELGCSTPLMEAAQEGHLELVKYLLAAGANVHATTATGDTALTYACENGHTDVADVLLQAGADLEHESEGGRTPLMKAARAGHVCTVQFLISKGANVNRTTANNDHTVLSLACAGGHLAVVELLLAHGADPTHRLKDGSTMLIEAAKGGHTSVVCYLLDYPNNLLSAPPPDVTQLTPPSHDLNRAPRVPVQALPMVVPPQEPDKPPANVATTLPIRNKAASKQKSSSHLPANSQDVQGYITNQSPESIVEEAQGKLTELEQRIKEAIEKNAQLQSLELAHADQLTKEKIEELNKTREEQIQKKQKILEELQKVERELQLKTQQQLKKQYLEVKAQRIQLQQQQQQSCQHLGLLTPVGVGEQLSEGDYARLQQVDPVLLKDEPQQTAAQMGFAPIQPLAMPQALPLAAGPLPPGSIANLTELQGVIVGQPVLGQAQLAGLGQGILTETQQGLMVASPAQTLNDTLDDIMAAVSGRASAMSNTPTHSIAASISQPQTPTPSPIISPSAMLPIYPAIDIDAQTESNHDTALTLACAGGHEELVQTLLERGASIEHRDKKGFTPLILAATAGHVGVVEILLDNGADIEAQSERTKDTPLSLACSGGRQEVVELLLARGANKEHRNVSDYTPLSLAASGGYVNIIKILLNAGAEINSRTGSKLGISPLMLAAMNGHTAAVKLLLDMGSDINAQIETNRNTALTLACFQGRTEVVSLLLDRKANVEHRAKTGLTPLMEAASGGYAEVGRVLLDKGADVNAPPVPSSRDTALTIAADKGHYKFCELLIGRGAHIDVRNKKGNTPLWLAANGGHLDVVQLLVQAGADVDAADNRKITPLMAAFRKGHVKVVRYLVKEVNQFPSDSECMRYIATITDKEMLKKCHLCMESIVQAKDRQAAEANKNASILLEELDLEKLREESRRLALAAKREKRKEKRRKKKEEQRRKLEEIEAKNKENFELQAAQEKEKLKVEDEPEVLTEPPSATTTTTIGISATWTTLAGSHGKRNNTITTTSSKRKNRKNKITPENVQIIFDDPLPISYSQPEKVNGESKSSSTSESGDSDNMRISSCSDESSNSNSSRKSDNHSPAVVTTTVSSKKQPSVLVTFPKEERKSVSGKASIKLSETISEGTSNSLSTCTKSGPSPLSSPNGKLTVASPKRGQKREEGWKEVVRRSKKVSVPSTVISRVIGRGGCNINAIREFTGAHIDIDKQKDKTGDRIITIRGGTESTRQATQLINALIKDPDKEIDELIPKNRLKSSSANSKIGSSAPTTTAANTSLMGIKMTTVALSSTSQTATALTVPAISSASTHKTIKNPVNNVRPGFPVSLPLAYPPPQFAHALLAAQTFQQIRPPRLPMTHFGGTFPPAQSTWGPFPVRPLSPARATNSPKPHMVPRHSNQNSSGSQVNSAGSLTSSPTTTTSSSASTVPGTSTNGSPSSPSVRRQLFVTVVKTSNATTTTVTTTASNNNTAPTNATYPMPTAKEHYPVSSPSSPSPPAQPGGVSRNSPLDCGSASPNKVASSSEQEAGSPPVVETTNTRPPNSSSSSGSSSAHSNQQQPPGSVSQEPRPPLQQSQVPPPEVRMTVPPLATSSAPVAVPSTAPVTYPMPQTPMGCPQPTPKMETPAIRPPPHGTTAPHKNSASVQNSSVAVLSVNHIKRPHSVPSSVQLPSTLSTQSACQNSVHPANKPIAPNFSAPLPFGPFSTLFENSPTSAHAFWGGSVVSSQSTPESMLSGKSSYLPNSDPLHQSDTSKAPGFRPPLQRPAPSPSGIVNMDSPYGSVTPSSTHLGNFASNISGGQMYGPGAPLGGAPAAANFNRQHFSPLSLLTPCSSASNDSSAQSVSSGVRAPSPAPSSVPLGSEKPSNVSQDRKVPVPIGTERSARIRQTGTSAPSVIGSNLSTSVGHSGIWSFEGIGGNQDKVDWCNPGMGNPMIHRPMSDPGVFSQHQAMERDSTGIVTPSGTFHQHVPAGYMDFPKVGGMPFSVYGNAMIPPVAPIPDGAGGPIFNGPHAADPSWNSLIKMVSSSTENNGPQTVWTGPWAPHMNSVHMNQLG
UniProt Q4KMQ2: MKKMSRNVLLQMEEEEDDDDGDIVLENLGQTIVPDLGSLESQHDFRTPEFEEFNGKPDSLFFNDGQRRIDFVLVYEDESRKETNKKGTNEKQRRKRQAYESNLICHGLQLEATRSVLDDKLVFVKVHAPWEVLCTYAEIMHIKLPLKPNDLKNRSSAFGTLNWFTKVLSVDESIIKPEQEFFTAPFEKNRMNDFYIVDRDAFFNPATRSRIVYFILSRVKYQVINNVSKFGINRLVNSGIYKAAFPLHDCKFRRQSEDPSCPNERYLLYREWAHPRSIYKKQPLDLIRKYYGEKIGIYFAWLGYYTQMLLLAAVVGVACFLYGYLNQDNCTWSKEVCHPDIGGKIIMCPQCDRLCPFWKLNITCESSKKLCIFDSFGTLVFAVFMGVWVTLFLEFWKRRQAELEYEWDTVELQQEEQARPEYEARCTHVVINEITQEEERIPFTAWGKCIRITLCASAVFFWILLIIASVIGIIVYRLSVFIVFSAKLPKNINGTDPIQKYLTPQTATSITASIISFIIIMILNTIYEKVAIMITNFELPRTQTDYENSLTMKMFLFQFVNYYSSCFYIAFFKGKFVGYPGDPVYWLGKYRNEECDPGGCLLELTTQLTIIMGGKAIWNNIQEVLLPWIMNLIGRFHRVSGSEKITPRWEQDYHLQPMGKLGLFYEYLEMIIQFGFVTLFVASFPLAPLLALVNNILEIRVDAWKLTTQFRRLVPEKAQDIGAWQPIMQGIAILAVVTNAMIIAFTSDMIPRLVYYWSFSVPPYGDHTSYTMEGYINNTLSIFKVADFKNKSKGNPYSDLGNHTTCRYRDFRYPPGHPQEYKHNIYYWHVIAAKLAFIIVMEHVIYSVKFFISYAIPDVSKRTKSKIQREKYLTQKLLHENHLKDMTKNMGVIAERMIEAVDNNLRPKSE

volasertib = compound: CC[C@@H]1C(=O)N(C)c2cnc(Nc3ccc(C(=O)N[C@H]4CC[C@H](N5CCN(CC6CC6)CC5)CC4)cc3OC)nc2N1C(C)C [volasertib]
Summary of the method: as §1

[2] = compound: CC[C@H](C)N1C=C(C2=C(C=C(C=C21)C3=CN=C(C=C3)N4CCNCC4)C(=O)NCC5=C(C=C(NC5=O)C)C)C
Summary of the method: as §1

epoxomicin = compound: CC[C@H](C)[C@@H](C(=O)N[C@@H]([C@@H](C)O)C(=O)N[C@@H](CC(C)C)C(=O)[C@]1(CO1)C)NC(=O)[C@H]([C@@H](C)CC)N(C)C(=O)C [epoxomicin]
Summary of the method: as §1

[3] = compound: CCn1c(C(=O)N(C2CC2)C2CC2)cc2c3c(ncn3C)c(Nc3cc(C)n(C)n3)nc21
Summary of the method: as §1

[4] = compound: CCn1cc(-c2ccnc3[nH]c(-c4cccc(CN(C)C)c4)cc23)c(-c2ccc(NC(=O)N(C)C)cc2)n1
Summary of the method: as §1

[5] = compound: CN(C)CC(=O)Nc1ccc2[nH]c(=O)c3ccccc3c2c1
Summary of the method: as §1

rosiglitazone = compound: CN(CCOC1=CC=C(C=C1)C[C@H]2C(=O)NC(=O)S2)C3=CC=CC=N3 (racemic) [rosiglitazone]
Summary of the method: as §1

[6] = compound: CN1C2=C(C3=C1C(=O)N(N=C3)CC4=CC(=CC=C4)N)SC(=C2)S(=O)C
Summary of the method: as §1

[7] = compound: CN1CCC(CNc2ccc3ncc(-c4cccc(OC(F)(F)F)c4)n3n2)CC1
Summary of the method: as §1

saracatinib = compound: CN1CCN(CCOc2cc(OC3CCOCC3)c3c(Nc4c(Cl)ccc5c4OCO5)ncnc3c2)CC1 [saracatinib]
Summary of the method: as §1

sotrastaurin = compound: CN1CCN(c2nc(C3=C(c4c[nH]c5ccccc45)C(=O)NC3=O)c3ccccc3n2)CC1 [sotrastaurin]
Summary of the method: as §1

alvocidib = compound: CN1CC[C@H](c2c(O)cc(O)c3c(=O)cc(-c4ccccc4Cl)oc23)[C@H](O)C1 [alvocidib]
Summary of the method: as §1

Tubastatin A = compound: CN1CCc2c(c3ccccc3n2Cc2ccc(C(=O)NO)cc2)C1 [Tubastatin A]
Summary of the method: as §1

[8] = compound: CNC(=O)C1=CC=CC=C1NC2=NC(=NC=C2Cl)NC3=C(C=C(C=C3)N4CCOCC4)OC
Summary of the method: as §1

defactinib = compound: CNC(=O)c1ccc(Nc2ncc(C(F)(F)F)c(NCc3nccnc3N(C)S(C)(=O)=O)n2)cc1 [defactinib]
Summary of the method: as §1

rucaparib = compound: CNCc1ccc(-c2[nH]c3cc(F)cc4c3c2CCNC4=O)cc1 [rucaparib]
Summary of the method: as §1

[9] = compound: CNc1nc(-c2ccc3c(N)n[nH]c3c2)cc(N2C[C@@H](C(=O)NC3CCCCC3)CC[C@H]2C)n1
Summary of the method: as §1

encorafenib = compound: COC(=O)N[C@@H](C)CNc1nccc(-c2cn(C(C)C)nc2-c2cc(Cl)cc(NS(C)(=O)=O)c2F)n1 [encorafenib]
Summary of the method: as §1

[10] = compound: COC(=O)[C@H](CCSC)NC(=O)C1=C(C=C(C=C1)NC[C@H](CS)N)C2=CC=CC=C2
Summary of the method: as §1

Measured: log2 fold change

APOOL (UniProt Q6UXV4)
inactive: [1] 0.01 | volasertib 0.034 | [2] -0.056 | epoxomicin -0.042 | [3] 0.018 | [4] -0.007 | [5] -0.049 | rosiglitazone -0.012 | [6] -0.029 | [7] 0.009 | saracatinib 0.056 | sotrastaurin 0.035 | alvocidib 0.041 | Tubastatin A -0.019 | [8] 0.003 | defactinib -0.011 | rucaparib 0.023 | [9] -0.03 | encorafenib -0.007 | [10] 0.029

ARHGEF1 isoform 3 (UniProt Q92888)
inactive: [1] -0.063 | volasertib -0.276 | [2] -0.006 | epoxomicin -0.029 | [3] -0.144 | [4] 0.078 | [5] 0.046 | rosiglitazone 0.076 | [6] 0.13 | [7] -0.023 | saracatinib -0.07 | sotrastaurin -0.187 | alvocidib 0.051 | Tubastatin A 0.066 | [8] -0.023 | defactinib 0.02 | rucaparib 0.295 | [9] 0.08 | encorafenib 0.189 | [10] -0.047

ANKRD28 (UniProt O15084)
inactive: [1] -0.04 | volasertib -0.117 | [2] 0.025 | epoxomicin 0.049 | [3] -0.02 | [4] -0.055 | [5] 0.002 | rosiglitazone 0.007 | [6] -0.019 | [7] -0.118 | saracatinib 0.02 | sotrastaurin -0.013 | alvocidib -0.003 | Tubastatin A -0.001 | [8] 0.016 | defactinib -0.041 | rucaparib -0.014 | [9] -0.002 | encorafenib 0.042 | [10] 0.009

ANXA1 (UniProt P04083)
inactive: [1] -0.114 | volasertib -0.193 | [2] 0.047 | epoxomicin 0.102 | [3] -0.038 | [4] -0.046 | [5] 0.036 | rosiglitazone 0.071 | [6] -0.001 | [7] -0.18 | saracatinib -0.032 | sotrastaurin -0.112 | alvocidib -0.103 | Tubastatin A 0.029 | [8] 0.067 | defactinib -0.084 | rucaparib -0.029 | [9] 0.031 | encorafenib 0.071 | [10] -0.01

ARFGEF2 (UniProt Q9Y6D5)
inactive: [1] -0.065 | volasertib -0.197 | [2] 0.023 | epoxomicin -0.008 | [3] -0.04 | [4] 0.011 | [5] 0.015 | rosiglitazone 0.043 | [6] -0.03 | [7] -0.124 | saracatinib 0.026 | sotrastaurin 0.044 | alvocidib -0.061 | Tubastatin A 0.041 | [8] 0.053 | defactinib -0.034 | rucaparib -0.021 | [9] 0.02 | encorafenib 0.058 | [10] -0.046

API5 isoform 2 (UniProt Q9BZZ5)
inactive: [1] -0.073 | volasertib -0.011 | [2] 0.077 | epoxomicin 0.06 | [3] -0.106 | [4] -0.151 | [5] 0.006 | rosiglitazone 0.002 | [6] -0.091 | [7] -0.122 | saracatinib 0.038 | sotrastaurin 0.015 | alvocidib -0.112 | Tubastatin A -0.027 | [8] 0.046 | defactinib 0 | rucaparib 0.002 | [9] 0.007 | encorafenib -0.021 | [10] 0.098

AP5Z1 (UniProt O43299)
inactive: [1] -0.012 | volasertib 0.094 | [2] 0.031 | epoxomicin -0.167 | [3] -0.062 | [4] -0.233 | [5] -0.042 | rosiglitazone 0.416 | [6] 0.007 | [7] -0.175 | saracatinib -0.135 | sotrastaurin 0.121 | alvocidib 0.037 | Tubastatin A -0.002 | [8] -0.15 | defactinib 0.078 | rucaparib 0.214 | [9] -0.06 | encorafenib -0.239 | [10] -0.079

AP5M1 (UniProt Q9H0R1)
inactive: [1] -0.008 | volasertib -0.121 | [2] -0.02 | epoxomicin 0.047 | [4] 0.038 | [5] 0.078 | rosiglitazone -0.064 | [6] 0.156 | [7] -0.043 | saracatinib 0.237 | sotrastaurin -0.016 | alvocidib -0.01 | defactinib -0.346 | rucaparib -0.049 | [9] 0.003 | encorafenib 0.196 | [10] -0.054

AP1B1 (UniProt Q10567)
inactive: [1] -0.005 | volasertib -0.053 | [2] 0.009 | epoxomicin -0.012 | [3] -0.005 | [4] -0.001 | [5] 0.016 | rosiglitazone 0.013 | [6] -0.042 | [7] 0.008 | saracatinib 0.037 | sotrastaurin -0.006 | alvocidib -0.009 | Tubastatin A -0.009 | [8] 0.011 | defactinib -0.091 | rucaparib 0.019 | [9] 0.013 | encorafenib 0.012 | [10] -0.014

ANKFY1 isoform 4 (UniProt Q9P2R3)
inactive: [1] 0.084 | volasertib -0.391 | [2] 0.121 | epoxomicin -0.06 | [3] -0.351 | [4] -0.246 | [5] -0.004 | rosiglitazone 0.023 | [7] 0.08 | sotrastaurin -0.121 | alvocidib 0.107 | Tubastatin A 0.11 | [8] 0.04 | defactinib 0.045 | rucaparib 0.215 | encorafenib 0.322 | [10] 0.014

ANAPC5 (UniProt Q9UJX4)
inactive: [1] 0.021 | volasertib -0.149 | [2] 0.042 | epoxomicin 0.03 | [3] 0.003 | [4] 0.017 | [5] 0.005 | rosiglitazone -0.008 | [6] 0.021 | [7] 0.011 | saracatinib -0.062 | sotrastaurin -0.019 | alvocidib -0.019 | Tubastatin A 0.037 | [8] 0.067 | defactinib -0.013 | rucaparib -0.001 | [9] -0.015 | encorafenib 0.055 | [10] -0.005

Copied from the entries so far (2 entries):
ANKFY1 isoform 4 (UniProt Q9P2R3)
inactive: [1] 0.084 | volasertib -0.391 | [2] 0.121 | epoxomicin -0.06 | [3] -0.351 | [4] -0.246 | [5] -0.004 | rosiglitazone 0.023 | [7] 0.08 | sotrastaurin -0.121 | alvocidib 0.107 | Tubastatin A 0.11 | [8] 0.04 | defactinib 0.045 | rucaparib 0.215 | encorafenib 0.322 | [10] 0.014

ANAPC5 (UniProt Q9UJX4)
inactive: [1] 0.021 | volasertib -0.149 | [2] 0.042 | epoxomicin 0.03 | [3] 0.003 | [4] 0.017 | [5] 0.005 | rosiglitazone -0.008 | [6] 0.021 | [7] 0.011 | saracatinib -0.062 | sotrastaurin -0.019 | alvocidib -0.019 | Tubastatin A 0.037 | [8] 0.067 | defactinib -0.013 | rucaparib -0.001 | [9] -0.015 | encorafenib 0.055 | [10] -0.005

Further results

ANKRD17 (UniProt O75179)
inactive: [1] 0.069 | volasertib -0.098 | [2] -0.017 | epoxomicin -0.024 | [3] -0.081 | [4] 0.044 | [5] -0.128 | rosiglitazone 0.025 | [6] 0.093 | [7] -0.07 | saracatinib -0.123 | sotrastaurin -0.136 | alvocidib -0.016 | Tubastatin A 0.024 | [8] 0.002 | defactinib 0 | rucaparib 0.235 | [9] 0.031 | encorafenib 0.034 | [10] 0.021

ANXA11 (UniProt P50995)
inactive: [1] -0.075 | volasertib -0.125 | [2] 0.073 | epoxomicin 0.063 | [3] -0.002 | [4] -0.091 | [5] 0.079 | rosiglitazone 0.022 | [6] -0.06 | [7] -0.056 | saracatinib -0.021 | sotrastaurin -0.049 | alvocidib -0.12 | Tubastatin A 0.021 | [8] 0.024 | defactinib -0.08 | rucaparib -0.045 | [9] 0.024 | encorafenib 0.045 | [10] -0.042

ANO6 isoform 2 (UniProt Q4KMQ2)
inactive: [1] 0.023 | volasertib -0.056 | [2] -0.02 | epoxomicin 0.08 | [3] 0.015 | [4] -0.051 | [5] -0.023 | rosiglitazone 0.054 | [6] -0.066 | [7] -0.192 | saracatinib 0.088 | sotrastaurin -0.015 | alvocidib -0.027 | Tubastatin A -0.017 | [8] -0.043 | defactinib -0.017 | rucaparib -0.011 | [9] 0.03 | encorafenib -0.002 | [10] -0.008

ARF1 (UniProt P84077)
inactive: [1] -0.006 | volasertib 0.013 | [2] 0.112 | epoxomicin -0.24 | [3] -0.132 | [5] 0.003 | rosiglitazone -0.058 | [6] -0.112 | saracatinib 0.066 | sotrastaurin -0.168 | alvocidib -0.141 | Tubastatin A -0.123 | [8] -0.032 | defactinib 0.002 | rucaparib 0.038 | [9] 0.033 | encorafenib 0.171 | [10] 0.008

ANAPC4 isoform 3 (UniProt Q9UJX5)
inactive: [1] -0.011 | volasertib -0.122 | [2] 0.027 | epoxomicin 0.001 | [3] 0.001 | [4] 0.04 | [5] 0.006 | rosiglitazone -0.01 | [6] -0.023 | [7] 0.006 | saracatinib 0.017 | sotrastaurin -0.05 | alvocidib -0.061 | Tubastatin A 0.004 | [8] 0.011 | defactinib -0.009 | rucaparib 0.03 | [9] -0.008 | encorafenib 0.012 | [10] -0.013

From the supplement of paper PMC10849652
